Drawing on PMC6831465, this text covers binding for one substance.

Chains of the proteins cited; added tags and fusions are not shown.
UniProt P40763: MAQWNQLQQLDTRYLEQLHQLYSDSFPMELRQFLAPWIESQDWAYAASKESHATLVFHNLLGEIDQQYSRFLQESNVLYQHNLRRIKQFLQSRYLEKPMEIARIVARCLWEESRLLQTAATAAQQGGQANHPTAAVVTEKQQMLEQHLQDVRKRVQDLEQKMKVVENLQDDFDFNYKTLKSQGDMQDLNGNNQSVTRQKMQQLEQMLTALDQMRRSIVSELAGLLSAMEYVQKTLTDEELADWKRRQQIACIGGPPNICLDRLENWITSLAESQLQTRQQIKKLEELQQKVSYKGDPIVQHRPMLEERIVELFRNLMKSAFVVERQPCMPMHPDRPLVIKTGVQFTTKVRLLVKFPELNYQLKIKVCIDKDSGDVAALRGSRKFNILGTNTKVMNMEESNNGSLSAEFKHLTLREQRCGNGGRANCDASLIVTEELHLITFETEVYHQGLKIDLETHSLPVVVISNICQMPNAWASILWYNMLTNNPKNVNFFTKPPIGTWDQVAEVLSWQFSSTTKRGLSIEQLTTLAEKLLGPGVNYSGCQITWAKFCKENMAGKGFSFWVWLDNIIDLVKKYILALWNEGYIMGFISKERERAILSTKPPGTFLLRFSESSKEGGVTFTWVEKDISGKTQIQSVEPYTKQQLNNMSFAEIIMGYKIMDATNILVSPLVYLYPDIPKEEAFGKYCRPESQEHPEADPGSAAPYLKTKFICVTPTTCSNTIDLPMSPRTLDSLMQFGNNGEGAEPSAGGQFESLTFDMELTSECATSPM
UniProt P31270: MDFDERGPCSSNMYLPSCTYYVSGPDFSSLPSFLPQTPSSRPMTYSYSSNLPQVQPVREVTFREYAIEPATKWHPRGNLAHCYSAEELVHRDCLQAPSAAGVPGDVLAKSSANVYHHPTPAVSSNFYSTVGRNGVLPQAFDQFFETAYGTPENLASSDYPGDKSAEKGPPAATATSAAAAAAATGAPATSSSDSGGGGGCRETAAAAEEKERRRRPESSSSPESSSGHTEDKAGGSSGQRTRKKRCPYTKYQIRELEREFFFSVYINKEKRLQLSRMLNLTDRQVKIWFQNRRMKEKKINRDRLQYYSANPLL

Results are given in words; binding and its absence hold for the method and conditions named. Binding seen in cells or lysates may run through a third protein.

This assay has as its target Stat3 (human (endogenous in NCI-N87 and SGC-7901)) (UniProt P40763). Put plainly: co-IP; reciprocal co-IP with anti-Stat3 and anti-Flag antibodies coupled to resin (Pierce Co-Immunoprecipitation Kit); 1 mg lysate of NCI-N87-flag-HOXA11 or SGC-7901-flag-HOXA11 cells in IP Lysis/Wash Buffer, overnight at 4 °C; western blot detection.

For the substance “Homeobox A11 (HOXA11), flag-tagged (from UniProt P31270 1-313)”, the binding entry is given as “no binding”.
